{"source": "patent US20180221332A1", "about": "“Flash-Melt Cannabinoid Formulations” (CannTab Therapeutics Limited, priority 2017, published 2018)", "origin": "cited, not measured here", "data": [{"smiles": "CCCCCc1cc(O)c2c(c1)OC(C)(C)[C@@H]1CCC(C)=C[C@@H]21", "note": "[Dronabinol, (−)-trans-Δ^9-tetrahydrocannabinol]", "values": [{"measurement": "solubility in water", "value": "insoluble in water"}]}]}
